Consider 40 compounds from the supplement of paper PMC11348887.

SMILES strings stand for the structures. Counter-ions that a name gives are not always drawn. Some of the results follow. Most values lie at the level of the controls, where differences are scatter.

The subject of the assay is hPSC-derived cortical neurons (WA09). Description: total neurite length per nucleus (MAP2) z-score; higher = more neurite growth. Conditions: 5 µM; treatment: days 7-14 after plating, readout day 21.
For the compound `NC(=O)CC[C@H](N)C(=O)O` [L-Glutamine], the “total neurite length per nucleus (z-score)” value is 0.341.
Consider `Cc1[nH]c2ccccc2c1CCNCc1ccc(/C=C/C(=O)NO)cc1` [Panobinostat (LBH589)], for which the “total neurite length per nucleus (z-score)” value is -2.92.
Under `CCCC(=O)Nc1ncnc2c1ncn2[C@@H]1O[C@@H]2COP(=O)(O)O[C@H]2[C@H]1OC(=O)CCC` [Dibutyryl-cAMP (Bucladesine)] stands 0.477; under `CC(C)Oc1ccc(C(=O)N[C@H](CNC(=O)CN(C)C)Cc2ccc(-c3cn4cccc([C@H](C)O)c4n3)cc2)cc1Cl`, 0.324; under `Nc1nc(N)c2nc(-c3ccccc3)c(N)nc2n1` [Triamterene], -0.411.
In the case of `COc1c(C)c2c(c(O)c1C/C=C(\C)CCC(=O)OCCN1CCOCC1)C(=O)OC2` [Mycophenolate Mofetil] it was 0.645.
Turning to `CC(C(=O)O)c1cccc(Oc2ccccc2)c1` (stereo not given) [Fenoprofen Calcium], the “total neurite length per nucleus (z-score)” value is -0.36.
Under `C[C@H](CCC(=O)O)[C@H]1CC[C@H]2[C@@H]3C[C@H](O)[C@@H]4C[C@H](O)CC[C@]4(C)[C@H]3CC[C@]12C` [Hyodeoxycholic acid (HDCA)] stands -0.702; under `C[N+](C)(C)CCO.[Cl-]` [Choline Chloride], 0.21; under `Nc1ccc(S(=O)(=O)NC(=O)c2ccccc2)cc1` [Sulfabenzamide], 0.71.
With `C=CC(=O)Nc1cccc(C)c1Nc1ncc2cc(-c3c(Cl)c(OC)cc(OC)c3Cl)ccc2n1`, the “total neurite length per nucleus (z-score)” value was 1.6.
`COc1cccc2c1C(=O)c1c(O)c3c(c(O)c1C2=O)C[C@@](O)(C(=O)CO)C[C@@H]3O[C@H]1C[C@H](N)[C@H](O)[C@H](C)O1` [Doxorubicin (Adriamycin)]: the “total neurite length per nucleus (z-score)” value is -2.75.
Under `O=C(O)c1cccc(-c2noc(-c3ccccc3F)n2)c1` [Ataluren (PTC124)] stands 1.08.
In the case of `O=C(NC(NC(=S)Nc1ccc(F)c([N+](=O)[O-])c1)C(Cl)(Cl)Cl)C(c1ccccc1)c1ccccc1` (stereo not given) it was -0.554; in that of `CC#CC(=O)N1CC[C@@H](n2c(=O)n(-c3ccc(Oc4ccccc4)cc3)c3c(N)ncnc32)C1`, -0.254; in that of `Nc1nc(=O)c2c([nH]1)NC[C@H](CNc1ccc(C(=O)N[C@@H](CCC(=O)O)C(=O)O)cc1)N2C=O` [Calcium Levofolinate], -2.48.
Under `OCC(O)CN1CCN(c2ccccc2)CC1` (stereo not given) [Dropropizine] stands 0.585; under `O=C(O)CCC(=O)c1ccc(-c2ccccc2)cc1` [Fenbufen], -0.615.
Take `Cc1cn[nH]c1` [Fomepizole]: the “total neurite length per nucleus (z-score)” value is -1.41.
For the compound `COc1nc(C)nc(Cl)c1NC1=NCCN1` [Moxonidine], the “total neurite length per nucleus (z-score)” value was 0.164.
Turning to `CC(C)COc1ccc(CNC(=O)N(Cc2ccc(F)cc2)C2CCN(C)CC2)cc1` [Pimavanserin], the “total neurite length per nucleus (z-score)” value is -5.31.
As for `C[C@@H](c1ncncc1F)[C@](O)(Cn1cncn1)c1ccc(F)cc1F` [Voriconazole], the “total neurite length per nucleus (z-score)” value amounted to 0.735.
As to `Cc1ncc(CO)c(CO)c1O` [Pyridoxine HCl], the “total neurite length per nucleus (z-score)” value came to 0.253.
In the case of `O=C1c2c(O)cc(O)cc2O[C@H](c2cc(O)c(O)c(O)c2)[C@H]1O` [Dihydromyricetin] it was -0.0691; in that of `Cc1ccc(-n2nc(C(C)(C)C)cc2NC(=O)Nc2ccc(OCCN3CCOCC3)c3ccccc23)cc1` [BIRB 796 (Doramapimod)], -0.788; in that of `O=C(NNc1ccccc1)c1ccncc1`, -0.565.
With `C=CC1=C(C(=O)O)N2C(=O)[C@@H](NC(=O)/C(=N\OCC(=O)O)c3csc(N)n3)[C@H]2SC1` [Cefixime], the “total neurite length per nucleus (z-score)” value was -0.114.
Regarding `CC(C)(C)C#Cc1cc(N(C(=O)[C@H]2CC[C@H](C)CC2)[C@H]2CC[C@H](O)CC2)c(C(=O)O)s1` [VX-222 (VCH-222_ Lomibuvir)], the “total neurite length per nucleus (z-score)” value came to 0.259.
For `COc1ccc(S(=O)(=O)Nc2nc(-c3cccc([N+](=O)[O-])c3)cs2)cc1OC`, the “total neurite length per nucleus (z-score)” value was 1.89.
Under `CCN1CCN(Cc2ccc(Nc3ncc(F)c(-c4cc(F)c5nc(C)n(C(C)C)c5c4)n3)nc2)CC1` stands -4.66; under `CC(N)C12CC3CC(CC(C3)C1)C2` (stereo not given) [Rimantadine], 0.515.
Regarding `C[N+](C)(C)CCOC(=O)CCC(=O)OCC[N+](C)(C)C` [Succinylcholine Chloride Dihydrate], the “total neurite length per nucleus (z-score)” value is 0.887.
As for `CO[C@H]1C[C@@H]2CC[C@@H](C)[C@@](O)(O2)C(=O)C(=O)N2CCCC[C@H]2C(=O)O[C@H]([C@H](C)C[C@@H]2CC[C@@H](OCCO)[C@H](OC)C2)CC(=O)[C@H](C)/C=C(\C)[C@@H](O)[C@@H](OC)C(=O)[C@H](C)C[C@H](C)/C=C/C=C/C=C/1C` [Everolimus (RAD001)], the “total neurite length per nucleus (z-score)” value is -1.96.
Regarding `CC(=O)OCC(COC(C)=O)OC(C)=O` [Triacetin], the “total neurite length per nucleus (z-score)” value was found to be 1.11.
As for `N=C(N)c1ccc(OCCCCCOc2ccc(C(=N)N)cc2)cc1` [Pentamidine], the “total neurite length per nucleus (z-score)” value was -5.62.
In the case of `O=C(Cc1ccc(-c2ccc(OCCN3CCOCC3)cc2)cn1)NCc1ccccc1`, the “total neurite length per nucleus (z-score)” value was -5.36.
Under `COc1ccc(C2CC(c3ccccc3)=NN2c2ccc(S(N)(=O)=O)cc2)cc1` (stereo not given) stands 0.0266; under `CN(C)c1ccc(O)c2c1C[C@H]1C[C@H]3[C@H](N(C)C)C(O)=C(C(N)=O)C(=O)[C@@]3(O)C(O)=C1C2=O` [Minocycline HCl], 0.407.
In the case of `N[C@@H](Cc1c[nH]c2ccc(O)cc12)C(=O)O` [5-hydroxytryptophan (5-HTP)] it was 0.573.
`CC1=C(C(=O)Nc2cc3cn[nH]c3cc2F)C(c2ccc(C(F)(F)F)cc2)CC(=O)N1` (stereo not given): the “total neurite length per nucleus (z-score)” value came out at 0.0949.
